Source: US5223484A, “Peptide which regulates weight gain in mammals” (Georgetown University, priority 1990, dated 1993)
Part of at least one peptide drawing is inferred or uncertain, most often the ends. Where a SMILES comes first, the peptide text is derived from it.

How the values were obtained:
[1] = Body weight of rabbits injected with peptide/carrier conjugate; format: in vivo; conditions: female rabbits
Experimental: These peptides were then coupled chemically to keyhole limpet hemocyanin, a carrier protein, to improve the immunogenicity in rabbits.
Each peptide/carrier conjugate (50 μg of peptide, approximately 30 nanomoles) was injected subcutaneously into three female rabbits (three groups of three rabbits, approximately 2 months old). Two weeks later the rabbits were injected again with the same amounts of peptide/carrier conjugate. Thereafter, each rabbit was injected with the conjugate at approximately monthly intervals and blood samples were drawn. After five months, the rabbits were sacrificed.
Before the first injection, the rabbits were weighed for calculation of anesthetic dose (used to sedate the rabbits during injection). Before the rabbits were sacrificed, they were weighed again as the rabbits which received P2 were quite obese compared to all other rabbits. The average weight of the five injected with peptides P1 and P3 was 4.4 kg. This is normal for adult female rabbits of this type at this age, i.e. the average weight expected at 6 months is 4.5 kg. However, the weights of the rabbits injected with peptide P2 averaged 5.2 kg, approximately 20% higher.

[2] = Weight gain of mice injected with free peptide; format: in vivo, mice (BALB/c strain); conditions: BALB/c mice, free peptide 2.5 μg subcutaneously once per week
Experimental: In order to obtain statistically significant data on the effects of peptide P2 on weight gain, another series of experiments using mice were performed. Three groups of five mice (BALB/c strain) were used. The first group received injections of peptide P2, a second group received injections of P3 (as control), and a third group received injections of saline (as control). Free peptides were used to avoid the possibility that the effect observed in Example 1 may have been due to the nature of the chemical coupling to the carrier protein. Each mouse (weighing approximately 15 grams) received an injection of 2.5 μg (1.5 nanomoles) of peptide or saline injected subcutaneously. The mice were weighed three times per week and injected once per week with another 2.5 μg of peptide or saline. After 85 days the mice were sacrificed.

## CC(C)C[C@H](NC(=O)[C@H](CC(=O)O)NC(=O)[C@H](C)NC(=O)[C@H](Cc1ccc(O)cc1)NC(=O)CNC(=O)[C@H](CCCCN)NC(=O)[C@H](CCCCN)NC(=O)[C@H](CCCNC(=N)N)NC(=O)[C@H](Cc1c[nH]cn1)NC(=O)[C@H](Cc1c[nH]cn1)NC(=O)[C@@H](N)CS)C(=O)N[C@@H](Cc1ccc(O)cc1)C(=O)O [P2, CHHRKKGYADLY] (H-CHHRKKGYADLY-OH)
[1]; peptide coupled to keyhole limpet hemocyanin, 50 μg of peptide subcutaneously, repeated at two weeks then approximately monthly, P1 and P3 pooled (five rabbits)
  average weight of the rabbits at the end of five months: 5.2 kg
[1]; peptide/carrier conjugate, after five months, compared to all other rabbits
  appearance of rabbits before sacrifice: quite obese
[1]; peptide/keyhole limpet hemocyanin conjugate, after five months
  average weight higher than rabbits injected with P1 and P3: approximately 20%
[2]; 85 days, five mice per group
  effect on weight gain: delayed weight gain
[2]; similar until day 85
  time after which weight of P2 and P3 groups was similar: 60 days
